These are yes or no findings as the source states them, for the method shown. In cells and extracts the contact can be indirect. Some entries that bind do so weakly or less than the wild type.
Target: FOXP2 (human (endogenous in HCT116 and SW480)) (UniProt O15409)
Test: co-IP; endogenous proteins in RIPA lysates of HCT116 and SW480 cells; precipitated with anti-FOXP2 and anti-caspase-1 antibodies on Protein A-Agarose, overnight at 4°C; IgG as control; Western blot with the same antibodies

Chains of the proteins cited; added tags and fusions are not shown.
UniProt O15409: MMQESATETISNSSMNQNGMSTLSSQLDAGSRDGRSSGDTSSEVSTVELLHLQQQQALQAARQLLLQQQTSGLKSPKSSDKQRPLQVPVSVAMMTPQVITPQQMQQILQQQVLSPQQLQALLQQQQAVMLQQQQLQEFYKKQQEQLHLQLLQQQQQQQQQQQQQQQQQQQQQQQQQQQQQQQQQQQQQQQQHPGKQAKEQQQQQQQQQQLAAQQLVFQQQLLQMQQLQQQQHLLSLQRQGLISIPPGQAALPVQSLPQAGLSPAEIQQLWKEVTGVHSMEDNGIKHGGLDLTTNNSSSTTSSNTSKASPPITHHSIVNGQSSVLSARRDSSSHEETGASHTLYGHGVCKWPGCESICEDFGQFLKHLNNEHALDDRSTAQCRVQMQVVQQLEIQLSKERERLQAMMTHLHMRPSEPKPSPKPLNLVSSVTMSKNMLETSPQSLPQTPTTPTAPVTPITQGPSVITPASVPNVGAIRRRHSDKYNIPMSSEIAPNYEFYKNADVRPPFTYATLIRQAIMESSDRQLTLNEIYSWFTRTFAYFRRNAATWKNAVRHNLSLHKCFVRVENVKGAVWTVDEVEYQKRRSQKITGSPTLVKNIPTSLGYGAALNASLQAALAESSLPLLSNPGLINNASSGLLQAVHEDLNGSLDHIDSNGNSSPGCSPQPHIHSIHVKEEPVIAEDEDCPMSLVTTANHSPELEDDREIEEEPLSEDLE
UniProt P29466: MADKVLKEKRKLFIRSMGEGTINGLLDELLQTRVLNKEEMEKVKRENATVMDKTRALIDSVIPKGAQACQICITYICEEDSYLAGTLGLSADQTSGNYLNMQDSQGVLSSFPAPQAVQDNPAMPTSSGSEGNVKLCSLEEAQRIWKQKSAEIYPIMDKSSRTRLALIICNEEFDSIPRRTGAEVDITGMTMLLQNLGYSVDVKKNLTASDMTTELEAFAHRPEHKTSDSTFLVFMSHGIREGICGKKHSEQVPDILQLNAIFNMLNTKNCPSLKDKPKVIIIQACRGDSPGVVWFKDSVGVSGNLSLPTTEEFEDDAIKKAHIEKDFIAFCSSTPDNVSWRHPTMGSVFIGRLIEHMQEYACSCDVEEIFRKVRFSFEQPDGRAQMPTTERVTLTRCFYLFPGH

caspase-1 (from UniProt P29466 1-404)
binding: binds
